# The other results are listed elsewhere or left out.
# B1: FimA-N2 (Actinomyces oris) (protein)
# chain: MHHHHHHSSGVDLGTENLYFQSNAWIYDVNVYPKNEAIDVDKTIQAQKLNGYGVGSLIKFPVESTAPTLDAKSFYKYFQLKDTLDERLSEVTATDVSLEGTPLQPTDYKVETKQQTVTVTFTAEGLKKIKAAPGKKVSAVFQGKVTKAGNGAITNRAQVISDTLYAEQPPTPETPPTDPENPPTSDEVISRWGDLSIKKVDTHQQGQTKA
# Tests used:
# Experiment in all cases: glycan array binding signal (z-score within array); higher = stronger binding
# Conditions in all cases: glycan notation: IUPAC condensed, linker removed
# [1] = biological target: Fuc(a1-3)GlcNAc
# Method in brief: (§1)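 Glycan array binding is given as a within-array Z-score, which can be read as non-binding when negative. The arrays, 3228 of them, came from the Consortium for Functional Glycomics database and were retained only where the protein sequence was available. Z-scores were averaged across arrays of the same protein sequence at different concentrations or buffers and across linkers.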
# [2] = biological target: Fuc(a1-3)[Gal(b1-4)]Glc6S
# Method in brief: as §1
# [3] = biological target: Fuc(a1-3)[Gal(b1-4)]GlcNAc
# Method in brief: as §1
# [4] = biological target: Fuc(a1-3)[Gal(b1-4)]GlcNAc(b1-2)Man
# Method in brief: as §1
# [5] = biological target: Fuc(a1-3)[Gal(b1-4)]GlcNAc(b1-2)Man(a1-3)[Fuc(a1-3)[Gal(b1-4)]GlcNAc(b1-2)Man(a1-6)]Man(b1-4)GlcNAc(b1-4)GlcNAc
# Method in brief: as §1
# [6] = biological target: Fuc(a1-3)[Gal(b1-4)]GlcNAc(b1-2)Man(a1-3)[Fuc(a1-3)[Gal(b1-4)]GlcNAc(b1-2)Man(a1-6)]Man(b1-4)GlcNAc(b1-4)[Fuc(a1-6)]GlcNAc
# Method in brief: as §1
# [7] = biological target: Fuc(a1-3)[Gal(b1-4)]GlcNAc(b1-3)Gal(b1-3)[Fuc(a1-4)]GlcNAc
# Method in brief: as §1
# [8] = biological target: Fuc(a1-3)[Gal(b1-4)]GlcNAc(b1-3)Gal(b1-4)[Fuc(a1-3)]GlcNAc
# Method in brief: as §1
# [9] = biological target: Fuc(a1-3)[Gal(b1-4)]GlcNAc(b1-3)Gal(b1-4)[Fuc(a1-3)]GlcNAc(b1-3)Gal(b1-4)[Fuc(a1-3)]GlcNAc
# Method in brief: as §1
# [10] = biological target: Fuc(a1-3)[Gal(b1-4)]GlcNAc(b1-3)GalNAc
# Method in brief: as §1
# [11] = biological target: Fuc(a1-3)[Gal(b1-4)]GlcNAc(b1-6)GalNAc
# Method in brief: as §1
# [12] = biological target: Fuc(a1-3)[Gal(b1-4)]GlcNAc(b1-6)[Gal(b1-3)GlcNAc(b1-3)]Gal(b1-4)Glc
# Method in brief: as §1
# [13] = biological target: Fuc(a1-3)[Gal(b1-4)]GlcNAc6S
# Method in brief: as §1
# [14] = biological target: Fuc(a1-3)[Gal3S(b1-4)]Glc
# Method in brief: as §1
# [15] = biological target: Fuc(a1-3)[Gal3S(b1-4)]GlcNAc
# Method in brief: as §1
# [16] = biological target: Fuc(a1-3)[Gal3S(b1-4)]GlcNAc6S
# Method in brief: as §1
# [17] = biological target: Fuc(a1-3)[GalNAc(b1-4)]GlcNAc
# Method in brief: as §1
# [18] = biological target: Fuc(a1-3)[GalNAc(b1-4)]GlcNAc6S
# Method in brief: as §1
# [19] = biological target: Fuc(a1-4)GlcNAc
# Method in brief: as §1
# [20] = biological target: Fuc(b1-3)GlcNAc
# Method in brief: as §1
# [21] = biological target: Gal(a1-2)Gal
# Method in brief: as §1
# [22] = biological target: Gal(a1-3)Gal
# Method in brief: as §1
# [23] = biological target: Gal(a1-3)Gal(b1-3)GlcNAc
# Method in brief: as §1
# [24] = biological target: Gal(a1-3)Gal(b1-3)GlcNAc(b1-2)Man
# Method in brief: as §1
# [25] = biological target: Gal(a1-3)Gal(b1-3)GlcNAc(b1-2)Man(a1-3)[Gal(a1-3)Gal(b1-3)GlcNAc(b1-2)Man(a1-6)]Man(b1-4)GlcNAc(b1-4)GlcNAc
# Method in brief: as §1
# [26] = biological target: Gal(a1-3)Gal(b1-3)GlcNAc(b1-3)GalNAc
# Method in brief: as §1
# [27] = biological target: Gal(a1-3)Gal(b1-3)GlcNAc(b1-6)GalNAc
# Method in brief: as §1
# [28] = biological target: Gal(a1-3)Gal(b1-3)[Fuc(a1-4)]GlcNAc(b1-2)Man(a1-3)[Gal(a1-3)Gal(b1-3)[Fuc(a1-4)]GlcNAc(b1-2)Man(a1-6)]Man(b1-4)GlcNAc(b1-4)GlcNAc
# Method in brief: as §1
# [29] = biological target: Gal(a1-3)Gal(b1-4)Glc
# Method in brief: as §1
# [30] = biological target: Gal(a1-3)Gal(b1-4)GlcNAc
# Method in brief: as §1
# [31] = biological target: Gal(a1-3)Gal(b1-4)GlcNAc(b1-2)Man
# Method in brief: as §1
# [32] = biological target: Gal(a1-3)Gal(b1-4)GlcNAc(b1-2)Man(a1-3)[Gal(a1-3)Gal(b1-4)GlcNAc(b1-2)Man(a1-6)]Man(b1-4)GlcNAc(b1-4)GlcNAc
# Method in brief: as §1
# [33] = biological target: Gal(a1-3)Gal(b1-4)GlcNAc(b1-3)GalNAc
# Method in brief: as §1
# [34] = biological target: Gal(a1-3)Gal(b1-4)GlcNAc(b1-6)GalNAc
# Method in brief: as §1
# [35] = biological target: Gal(a1-3)Gal(b1-4)[Fuc(a1-3)]GlcNAc
# Method in brief: as §1
# [36] = biological target: Gal(a1-3)Gal(b1-4)[Fuc(a1-3)]GlcNAc(b1-2)Man(a1-3)[Gal(a1-3)Gal(b1-4)[Fuc(a1-3)]GlcNAc(b1-2)Man(a1-6)]Man(b1-4)GlcNAc(b1-4)GlcNAc
# Method in brief: as §1
# [37] = biological target: Gal(a1-3)GalNAc
# Method in brief: as §1
# [38] = biological target: Gal(a1-3)[Gal(a1-4)]Gal(b1-4)GlcNAc
# Method in brief: as §1
# [39] = biological target: Gal(a1-4)Gal(b1-3)GlcNAc(b1-2)Man(a1-3)[Gal(a1-4)Gal(b1-3)GlcNAc(b1-2)Man(a1-6)]Man(b1-4)GlcNAc(b1-4)GlcNAc
# Method in brief: as §1
# [40] = biological target: Gal(a1-4)Gal(b1-4)Glc
# Method in brief: as §1
# [41] = biological target: Gal(a1-4)Gal(b1-4)GlcNAc
# Method in brief: as §1
# [42] = biological target: Gal(a1-4)Gal(b1-4)GlcNAc(b1-2)Man(a1-3)[Gal(a1-4)Gal(b1-4)GlcNAc(b1-2)Man(a1-6)]Man(b1-4)GlcNAc(b1-4)GlcNAc
# Method in brief: as §1
# [43] = biological target: Gal(a1-4)Gal(b1-4)GlcNAc(b1-3)Gal(b1-4)Glc
# Method in brief: as §1
# [44] = biological target: Gal(a1-4)GlcNAc
# Method in brief: as §1
# [45] = biological target: Gal(a1-6)Glc
# Method in brief: as §1
binder,measurement,setting,value
B1,glycan array binding signal (z-score),[1],0.896
same,glycan array binding signal (z-score),[2],-0.84
same,glycan array binding signal (z-score),[3],-0.144
same,glycan array binding signal (z-score),[4],-0.454
same,glycan array binding signal (z-score),[5],-0.354
same,glycan array binding signal (z-score),[6],1.17
same,glycan array binding signal (z-score),[7],0.251
same,glycan array binding signal (z-score),[8],1.36
same,glycan array binding signal (z-score),[9],-0.031
same,glycan array binding signal (z-score),[10],-0.674
same,glycan array binding signal (z-score),[11],-0.225
same,glycan array binding signal (z-score),[12],0.036
same,glycan array binding signal (z-score),[13],0.295
same,glycan array binding signal (z-score),[14],-0.146
same,glycan array binding signal (z-score),[15],-0.441
same,glycan array binding signal (z-score),[16],-0.836
same,glycan array binding signal (z-score),[17],1.22
same,glycan array binding signal (z-score),[18],-0.264
same,glycan array binding signal (z-score),[19],-0.114
same,glycan array binding signal (z-score),[20],-0.092
same,glycan array binding signal (z-score),[21],-0.754
same,glycan array binding signal (z-score),[22],0.221
same,glycan array binding signal (z-score),[23],1.02
same,glycan array binding signal (z-score),[24],2.25
same,glycan array binding signal (z-score),[25],0.101
same,glycan array binding signal (z-score),[26],-0.826
same,glycan array binding signal (z-score),[27],-1.06
same,glycan array binding signal (z-score),[28],0.334
same,glycan array binding signal (z-score),[29],0.989
same,glycan array binding signal (z-score),[30],0.411
same,glycan array binding signal (z-score),[31],-0.454
same,glycan array binding signal (z-score),[32],-1.06
same,glycan array binding signal (z-score),[33],0.644
same,glycan array binding signal (z-score),[34],-0.538
same,glycan array binding signal (z-score),[35],-1.47
same,glycan array binding signal (z-score),[36],1.29
same,glycan array binding signal (z-score),[37],-0.66
same,glycan array binding signal (z-score),[38],2.77
same,glycan array binding signal (z-score),[39],0.627
same,glycan array binding signal (z-score),[40],-1.24
same,glycan array binding signal (z-score),[41],0.248
same,glycan array binding signal (z-score),[42],0.413
same,glycan array binding signal (z-score),[43],-0.622
same,glycan array binding signal (z-score),[44],-1.59
same,glycan array binding signal (z-score),[45],-0.872

# An excerpt of these results, with bars between the fields:
binder | measurement | setting | value
B1 | glycan array binding signal (z-score) | [13] | 0.295
same | glycan array binding signal (z-score) | [39] | 0.627

# From the supplement of paper PMC8728848
